These are yes or no findings as the source states them, for the method shown. Binding can be weak; no strength is given.
Molecular target: ITSN2L coiled-coil domain expressed from pDBLeu-ITSN2L-CC (human) (UniProt Q9NZM3)
Assay: two-hybrid; directed test in yeast MaV203: pDBLeu baits with pPC86 preys, Beta-Gal assay (blue colonies)

By UniProt entry, the sequences of proteins in these tests, tags left out. Where a name states a change or a piece, a line headed by the entry shows the natural chain unless it says otherwise.
UniProt Q9NZM3: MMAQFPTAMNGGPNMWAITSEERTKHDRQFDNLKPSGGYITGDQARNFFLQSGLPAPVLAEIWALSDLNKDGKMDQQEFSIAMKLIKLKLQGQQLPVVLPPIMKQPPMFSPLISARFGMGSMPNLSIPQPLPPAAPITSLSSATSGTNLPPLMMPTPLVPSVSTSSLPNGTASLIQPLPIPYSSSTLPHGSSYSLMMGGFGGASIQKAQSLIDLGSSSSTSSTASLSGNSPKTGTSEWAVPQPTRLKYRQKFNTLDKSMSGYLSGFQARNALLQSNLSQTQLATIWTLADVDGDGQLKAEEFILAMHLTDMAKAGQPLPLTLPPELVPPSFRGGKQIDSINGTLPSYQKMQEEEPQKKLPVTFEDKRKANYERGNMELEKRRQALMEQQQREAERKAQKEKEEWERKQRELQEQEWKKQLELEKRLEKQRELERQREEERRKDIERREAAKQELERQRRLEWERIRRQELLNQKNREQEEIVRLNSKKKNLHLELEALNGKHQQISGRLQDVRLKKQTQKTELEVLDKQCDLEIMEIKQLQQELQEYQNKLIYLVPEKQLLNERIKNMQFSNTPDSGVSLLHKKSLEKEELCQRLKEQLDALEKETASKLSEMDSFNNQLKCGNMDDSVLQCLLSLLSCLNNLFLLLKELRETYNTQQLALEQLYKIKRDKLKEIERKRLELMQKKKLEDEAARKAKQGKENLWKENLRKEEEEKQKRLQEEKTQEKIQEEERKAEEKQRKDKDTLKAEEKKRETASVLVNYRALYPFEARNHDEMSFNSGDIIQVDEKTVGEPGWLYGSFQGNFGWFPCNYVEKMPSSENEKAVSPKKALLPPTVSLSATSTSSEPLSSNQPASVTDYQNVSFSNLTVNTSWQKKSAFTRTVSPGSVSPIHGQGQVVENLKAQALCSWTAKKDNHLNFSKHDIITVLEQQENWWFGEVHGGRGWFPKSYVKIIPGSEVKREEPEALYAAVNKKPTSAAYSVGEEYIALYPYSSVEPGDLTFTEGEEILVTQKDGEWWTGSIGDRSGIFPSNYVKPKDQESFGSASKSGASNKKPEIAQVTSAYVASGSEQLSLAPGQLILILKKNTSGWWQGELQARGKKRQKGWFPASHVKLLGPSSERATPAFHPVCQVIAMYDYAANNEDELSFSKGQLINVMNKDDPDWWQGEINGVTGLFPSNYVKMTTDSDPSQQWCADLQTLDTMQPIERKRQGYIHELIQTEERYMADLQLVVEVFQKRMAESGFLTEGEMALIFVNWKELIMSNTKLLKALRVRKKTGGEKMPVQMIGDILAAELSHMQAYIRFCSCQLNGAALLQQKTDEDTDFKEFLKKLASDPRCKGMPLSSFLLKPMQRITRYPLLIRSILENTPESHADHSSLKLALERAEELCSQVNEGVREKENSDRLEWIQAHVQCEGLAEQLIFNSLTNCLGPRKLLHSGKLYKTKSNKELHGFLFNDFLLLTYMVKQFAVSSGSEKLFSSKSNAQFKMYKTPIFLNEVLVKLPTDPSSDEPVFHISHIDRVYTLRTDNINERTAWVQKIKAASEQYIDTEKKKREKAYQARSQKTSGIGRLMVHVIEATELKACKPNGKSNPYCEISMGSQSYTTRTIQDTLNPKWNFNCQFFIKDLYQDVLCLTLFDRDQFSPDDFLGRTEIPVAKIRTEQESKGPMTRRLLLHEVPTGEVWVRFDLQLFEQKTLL

B1: RABEP1 (rabaptin-5) expressed from pPC86-RABEP1 (protein, UniProt Q15276 1-862)
chain: MAQPGPASQPDVSLQQRVAELEKINAEFLRAQQQLEQEFNQKRAKFKELYLAKEEDLKRQNAVLQAAQDDLGHLRTQLWEAQAEMENIKAIATVSENTKQEAIDEVKRQWREEVASLQAVMKETVRDYEHQFHLRLEQERTQWAQYRESAEREIADLRRRLSEGQEEENLENEMKKAQEDAEKLRSVVMPMEKEIAALKDKLTEAEDKIKELEASKVKELNHYLEAEKSCRTDLEMYVAVLNTQKSVLQEDAEKLRKELHEVCHLLEQERQQHNQLKHTWQKANDQFLESQRLLMRDMQRMEIVLTSEQLRQVEELKKKDQEDDEQQRLNKRKDHKKADVEEEIKIPVVCALTQEESSAQLSNEEEHLDSTRGSVHSLDAGLLLPSGDPFSKSDNDMFKDGLRRAQSTDSLGTSGSLQSKALGYNYKAKSAGNLDESDFGPLVGADSVSENFDTASLGSLQMPSGFMLTKDQERAIKAMTPEQEETASLLSSVTQGMESAYVSPSGYRLVSETEWNLLQKEVHNAGNKLGRRCDMCSNYEKQLQGIQIQEAETRDQVKKLQLMLRQANDQLEKTMKDKQELEDFIKQSSEDSSHQISALVLRAQASEILLEELQQGLSQAKRDVQEQMAVLMQSREQVSEELVRLQKDNDSLQGKHSLHVSLQQAEDFILPDTTEALRELVLKYREDIINVRTAADHVEEKLKAEILFLKEQIQAEQCLKENLEETLQLEIENCKEEIASISSLKAELERIKVEKGQLESTLREKSQQLESLQEIKISLEEQLKKETAAKATVEQLMFEEKNKAQRLQTELDVSEQVQRDFVKLSQTLQVQLERIRQADSLERIRAILNDTKLTDINQLPET
  binding: binds

Source: paper PMC4691038
